“And” between values parts separate entries of the source, which are not always exact repeats. Identical values can stand only once. Out of some 78,000 compounds screened, about 1,800 (2.3%) were called active. Inconclusive results, whose numbers are uncertain, are shown with a selection of clear calls. Rule as the data show it: active = inhibition above about 30%; inconclusive = mostly about 10% to 28%; inactive = weaker than that.
Target: Interleukin-1 receptor-like 1 (Homo sapiens) (UniProt Q01638)
Experiment: blocks human ST2 binding to IL-33, primary screen, biochemical, AlphaLISA (AID 1259354)
Conditions: AlphaLISA ST2-Fc/biotin-IL-33 interaction, 1 h; at 17 µM, active compounds read high

The chains behind the UniProt entries cited, without tags or fusion partners. Where a name states a change or a piece, a line headed by the entry shows the natural chain unless it says otherwise.
UniProt Q01638: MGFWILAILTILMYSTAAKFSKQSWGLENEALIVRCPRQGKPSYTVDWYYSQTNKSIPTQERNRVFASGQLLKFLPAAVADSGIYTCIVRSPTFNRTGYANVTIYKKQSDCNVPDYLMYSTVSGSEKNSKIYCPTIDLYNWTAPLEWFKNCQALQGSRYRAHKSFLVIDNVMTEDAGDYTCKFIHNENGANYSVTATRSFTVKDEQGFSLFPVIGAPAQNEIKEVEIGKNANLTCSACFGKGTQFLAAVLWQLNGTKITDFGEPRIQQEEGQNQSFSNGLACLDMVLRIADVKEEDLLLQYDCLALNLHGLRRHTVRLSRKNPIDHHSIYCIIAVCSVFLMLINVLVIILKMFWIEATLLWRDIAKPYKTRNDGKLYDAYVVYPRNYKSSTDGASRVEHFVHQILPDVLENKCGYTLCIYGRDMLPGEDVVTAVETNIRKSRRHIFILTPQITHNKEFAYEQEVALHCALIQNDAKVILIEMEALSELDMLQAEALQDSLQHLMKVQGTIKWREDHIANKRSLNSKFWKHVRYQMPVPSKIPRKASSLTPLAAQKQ

SMILES | inhibition
Nc1ncc(C(=O)N2CCCC(CCc3ccc(F)cc3)C2)c(-c2ccccc2)n1 (stereo not given) | inconclusive: 13%
CCCOc1cccc(C(=O)Nc2cccc(Br)c2)c1 | inactive
C=CCN1C(=O)C(=O)C(=C(O)c2ccc(Br)cc2)C1c1cccc(OC)c1 (stereo not given) | inactive
COc1ccc(OC)c(Nc2cc(C)nc3c(C)c(C)ccc23)c1 | active: 37%
COc1ccc2cc3cc(C(=O)N(C)c4cccc(Cl)c4)oc3nc2c1 | inconclusive: 13%
CCSc1nc(-c2cccs2)cc(C(F)(F)F)c1C#N | inconclusive: 24% and inconclusive: 18%
COc1ccc(OC)c(/C=C2/C=C(c3ccc(OC)cc3OC)OC2=O)c1 | inconclusive: 24%
COCC1(C(=O)NCC2CC(=O)N(C3CCCC3)C2)CCC1 (stereo not given) | inconclusive: 14%
CCOC(=O)c1sc(NC(=O)C2CC2c2ccccc2)c(C(=O)OCC)c1C (stereo not given) | inactive
CCOC(=O)c1c(-c2ccccc2)csc1NC(=O)c1cc(C2CC2)on1 | inconclusive: 10%
O=C1C2CCCCC2C(=O)N1c1ccc(F)cc1 (stereo not given) | inactive
Cc1ccccc1NC(=O)C(=O)NCc1ccco1 | inconclusive: 13%
CN(C)N1C(=O)CC(Nc2ccccc2)C1=O (stereo not given) | inactive
CC1=C(C(=O)OCc2ccccc2)C(c2cccc(Cl)c2)C(C#N)=C(N)O1 (stereo not given) | inactive
CCOc1ccc(N=C(NN)c2ccc3ccccc3n2)cc1 | inconclusive: 18%
COc1ccc(NC(C)=O)c([N+](=O)[O-])c1 | inconclusive: 15%
O=C(NCCC1=CCCCC1)C1CCN(S(=O)(=O)c2cccc3cccnc23)CC1 | inconclusive: 16%
Cc1ccc(S(=O)(=O)Nc2ccccc2C(=O)OCc2nc3ccccc3s2)cc1 | inactive
CC1CCN([C@@H]2[C@H](O)[C@H](CO)O[C@@H]2CNC(=O)Nc2ccc(F)cc2F)CC1 | inconclusive: 18%
FC(F)(F)c1cccc(-c2ccn[nH]2)n1 | inconclusive: 17%

SMILES | inhibition
CC(=O)c1cccc(NC(=O)c2ccc(C(C)(C)C)cc2)c1 | inconclusive: 13%
COc1ccc(-c2nnc(C[C@@H]3C[C@@H](C(C)C)[C@H](CN(C)CCO)C=C3C)o2)cc1 | inconclusive: 12%
CC(C(=O)N(C)C)N(C)Cc1cccc(C(=O)Nc2ccc[nH]c2=O)c1 (stereo not given) | inactive
Cc1c(N=Cc2cc([N+](=O)[O-])ccc2N2CCCC2)c(=O)n(-c2ccccc2)n1C | active: 36%
COc1cc2c(cc1OC)CN(C(=O)c1cn(Cc3ccccc3F)nn1)CC2 | inconclusive: 17%
O=C(CCS(=O)(=O)c1cccc2nonc12)NCc1ccccc1 | inactive
O=c1c(Cc2ccccc2)c[nH]c2ccccc12 | inconclusive: 12%
COC(=O)c1ccc(NC(=O)c2cc3c(=O)n4ccccc4nc3n2C)cc1 | inconclusive: 11%
CC(=O)O/N=C\c1c(Nc2ccc(C)cc2)nc2c(C)cccn2c1=O | inconclusive: 24%
CCn1cc(CNCc2cn(-c3ccc(F)cc3)nc2-c2ccccc2Cl)cn1 | inactive
Cc1cc(CN(C)C(=O)Nc2n[nH]c(Cc3ccccc3)n2)ccn1 | inconclusive: 18%
COCc1c(C(=O)NCc2ccc3c(c2)CCCN3C)cnn1-c1ncc(C)c(-c2cccs2)n1 | active: 39%
C=CCn1c(CNC(=O)c2ccc(Cl)cc2)nc2ccccc21 | inconclusive: 11%
O=c1oc2ccccc2c(Nc2ccccn2)c1[N+](=O)[O-] | inactive
Cc1cc(OCC(=O)Nc2cccc3nsnc23)ccc1Cl | inconclusive: 15%
Cc1ccccc1Cn1c(=O)n(CC(=O)NCc2ccco2)c(=O)c2sccc21 | inconclusive: 14%
Oc1cccc(-c2ccc(NC3CCCC3)nn2)c1 | inconclusive: 18%
CCN(CC)c1ncccc1CNC(=O)c1c[nH]c2ccccc12 | inconclusive: 19%
OCCCNc1ncnc2sc3c(c12)CCCCC3 | inconclusive: 12%
O=C(Nc1nnc(C2CC2)o1)c1ccc(S(=O)(=O)N2CCCCCC2)cc1 | inconclusive: 24%

SMILES | inhibition
CS(=O)(=O)N(CC(=O)O)c1ccccc1F | inactive
Cc1cc2n(n1)CCN(Cc1cc3n(n1)CCCNC3)C2 | inactive
COc1ccc(OC)c(CNC(=O)c2cc3cc4ccc(OC)cc4nc3o2)c1 | inconclusive: 16% and inconclusive: 15%
COC(=O)[C@@H](N)Cc1ccc(O)c(O)c1 | inconclusive: 13%
COC(=O)CN1C(=O)N(CCc2ccccc2)C2(CCN(C3CCOCC3)CC2)C1=O | inconclusive: 23%
CC1=C[C@@H](CNC(=O)CC(C)(C)C)[C@H](C(C)C)C[C@H]1CC(=O)N1CCN(C)CC1 | inactive
Cc1ccc(C(=O)NCC2CCN(C)C2)cc1-n1cccc1 (stereo not given) | inconclusive: 14%
CC1=C[C@@H](CNS(=O)(=O)Cc2ccccc2)[C@H](C(C)C)C[C@H]1CC(=O)N(C)Cc1cccnc1 | inactive
Cc1cc(C(=O)N[C@@H]2C[C@H]3C(=O)NCC(=O)N3C2)c2ccc(C)c(C)c2n1 | inconclusive: 13%
CC(C(=O)c1ccccc1)C1(O)C(=O)Nc2ccc(Br)cc21 (stereo not given) | inconclusive: 15%
O=[N+]([O-])c1ccccc1-c1ccc(CN2CCN(Cc3ccccc3)CC2)o1 | inconclusive: 21%
COc1ccc(NC(=O)O[C@@H]2CO[C@H]3[C@@H]2OC[C@@H]3Nc2nccc(-c3cccc(F)c3)n2)cc1 | inconclusive: 11%
COc1cccc(-n2cc(CN(C)Cc3nc(-c4ccccc4)no3)cn2)c1 | inconclusive: 14%
O=CNc1ncc(-c2nc3ccccc3[nH]2)s1 | inactive
O=C(NCCSc1ccccc1)c1ncn[nH]1 | inactive
COc1ccc(CC(=O)N(c2ccc(F)cc2)C2C=CS(=O)(=O)C2)cc1 (stereo not given) | inconclusive: 10%
COC(=O)c1c(NC(=O)c2cccs2)sc(C)c1C | inactive
COCCOC(=O)C1=C(C)NC(C)=C(C(=O)OC(C)C)C1c1cccc([N+](=O)[O-])c1 (stereo not given) | inconclusive: 12%
CN1CC2(CCCN(Cc3noc(-c4ccccc4)n3)CC2)OC1=O (stereo not given) | inconclusive: 12%
Cc1ccc(C)c(N2CCN(C(=O)c3cccn4c(=O)c5c6c(sc5nc34)CCCC6)CC2)c1 | inactive

Source: PubChem BioAssay AID1259354 (Paczesny and Yang Labs, IUPUI and University of Michigan, 2018)
